Experimental data taken from publication PMC9588774.
These are yes or no findings as the source states them, for the method shown. In cells and extracts the contact can be indirect. Some binding calls cover weakened binding; strength is not graded here.

Chains of the proteins cited; added tags and fusions are not shown. Lines headed by an entry give the natural chain unless they say otherwise; changes in a name come on top. Residues count along the entry.
UniProt P25445, residues 59-335: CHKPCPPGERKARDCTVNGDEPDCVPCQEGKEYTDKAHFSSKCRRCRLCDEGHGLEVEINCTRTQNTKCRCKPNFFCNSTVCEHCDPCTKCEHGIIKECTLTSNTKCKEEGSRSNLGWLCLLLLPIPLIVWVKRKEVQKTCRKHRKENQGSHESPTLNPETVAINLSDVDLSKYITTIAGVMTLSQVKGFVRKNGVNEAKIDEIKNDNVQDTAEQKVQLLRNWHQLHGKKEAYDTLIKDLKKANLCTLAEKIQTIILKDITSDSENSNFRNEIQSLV
UniProt Q13158: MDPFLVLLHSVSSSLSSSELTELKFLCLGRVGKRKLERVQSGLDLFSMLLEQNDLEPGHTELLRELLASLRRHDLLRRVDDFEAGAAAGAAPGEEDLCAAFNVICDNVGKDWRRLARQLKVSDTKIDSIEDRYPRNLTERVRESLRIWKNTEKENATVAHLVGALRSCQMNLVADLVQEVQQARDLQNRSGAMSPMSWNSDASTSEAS
UniProt Q14790: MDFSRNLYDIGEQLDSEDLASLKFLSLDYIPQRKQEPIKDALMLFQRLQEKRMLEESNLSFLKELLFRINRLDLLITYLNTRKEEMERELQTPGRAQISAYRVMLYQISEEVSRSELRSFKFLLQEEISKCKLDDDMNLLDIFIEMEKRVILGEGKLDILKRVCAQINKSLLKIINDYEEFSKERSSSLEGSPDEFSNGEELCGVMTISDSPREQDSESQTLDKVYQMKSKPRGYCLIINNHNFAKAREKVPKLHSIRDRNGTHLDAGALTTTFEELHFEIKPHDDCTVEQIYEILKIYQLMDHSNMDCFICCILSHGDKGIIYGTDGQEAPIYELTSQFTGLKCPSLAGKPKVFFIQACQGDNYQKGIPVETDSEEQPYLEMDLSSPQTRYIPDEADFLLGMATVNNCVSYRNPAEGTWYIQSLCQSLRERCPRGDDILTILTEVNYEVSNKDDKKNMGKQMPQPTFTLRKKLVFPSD

Molecular target: N-terminally truncated CD95 receptor (CD95-Δ58) expressed in CEM-IRC cells (UniProt P25445)
Experiment: co-IP; CEM-IRC clones treated with 100 ng/ml IgCD95L for the indicated times at 37 °C, lysed in HEPES-Triton X-100 buffer; CD95 DISC immunoprecipitated with APO1-3 and protein A-Sepharose; FADD and caspase-8 by immunoblot

Substance	binding
Fas-associated death domain (FADD) protein (from UniProt Q13158 1-208)	binds
caspase-8 (from UniProt Q14790 1-479) (enzyme)	binds
